{
  "source": "patent US20060166191A1",
  "key": {"[1]": {"molecular_target": "purified protein fragment representing the interacting domain of the AP-3 delta subunit (amino acids 554-844) (UniProt O14617)", "test": "pulldown of the purified fragment on bead-bound GST-Gag fusion proteins, Coomassie staining"}, "[2]": {"molecular_target": "purified protein fragment representing the interacting domain of the AP-3 delta subunit (amino acids 554-844) (UniProt O14617)", "test": "pulldown of the purified fragment on bead-bound GST-Gag fusion proteins, Coomassie staining (legend of FIG. 2C)"}, "[3]": {"molecular_target": "HA-AP3D-5′, N-terminal fragment of the AP-3 δ subunit (amino acids 1-742) with an N-terminal HA epitope tag (UniProt O14617)", "test": "coimmunoprecipitation with anti-myc from 293T cells (legend of FIG. 3A)"}, "[4]": {"molecular_target": "HA-TSG-5′, N-terminal fragment of TSG101 (codons 10-240) with an N-terminal HA tag (human) (UniProt Q99816)", "test": "coimmunoprecipitation with anti-myc from 293T cells, anti-HA immunoblot"}, "[5]": {"molecular_target": "HA-AP3D-5′, N-terminal fragment of the AP-3 δ subunit (amino acids 1-742) with an N-terminal HA epitope tag (UniProt O14617)", "test": "coimmunoprecipitation with anti-myc from 293T cells, anti-HA immunoblot"}, "[6]": {"molecular_target": "Gag-myc, full-length Gag molecule bearing a C-terminal myc epitope tag (HIV-1) (UniProt P04591)", "test": "reciprocal coimmunoprecipitation with anti-HA from 293T cells, anti-myc immunoblot"}},
  "note": "These are yes or no findings as the source states them, for the method shown. In cells and extracts the contact can be indirect. Some binding calls cover weakened binding; strength is not graded here.",
  "data": [
    {"substance": "GST-MA (from UniProt P04591 1-132)", "values": [
      {"measurement": "binding", "setting": "[1]", "value": "binds"},
      {"measurement": "binding", "setting": "[2]", "value": "binds"}
    ]},
    {"substance": "Gag-myc, full-length Gag molecule bearing a C-terminal myc epitope tag (from UniProt P04591 2-500)", "values": [
      {"measurement": "binding", "setting": "[3]", "value": "binds"},
      {"measurement": "binding", "setting": "[4]", "value": "binds"},
      {"measurement": "binding", "setting": "[5]", "value": "binds"}
    ]},
    {"substance": "HA-AP3D-5′, N-terminal fragment of the AP-3 δ subunit (amino acids 1-742) with an N-terminal HA epitope tag (from UniProt O14617 1-742)", "values": [
      {"measurement": "binding", "setting": "[6]", "value": "binds"}
    ]}
  ]
}
